Values quoted from earlier work, collected in US20220105147A1, “CROTON LECHLERI COMPOSITIONS FOR USE IN THE TOPICAL TREATMENT OF ACUTE BACTERIAL SKIN OR SKIN STRUCTURE INFECTION” (priority 2019, published 2022).
At least one compound was matched to its structure with a doubt left.

Test system: Pseudomonas aeruginosa (VIM, KPC, IMP, MDR strains, ATCC 27853)
Settings: strain ATCC 27853; quality control range; cited from earlier work

SMILES: C[C@@H](O)[C@H]1C(=O)N2C(C(=O)O)=C(SCCN=CN)C[C@H]12 [Imipenem]
- CLSI QC Range MIC: 1 to 4 µg/mL
